From publication PMC4130184 come the findings set out here.

Data set [1] has as its target T1, CSP41b (UniProt Q9SA52).
T1 sequence (looked up): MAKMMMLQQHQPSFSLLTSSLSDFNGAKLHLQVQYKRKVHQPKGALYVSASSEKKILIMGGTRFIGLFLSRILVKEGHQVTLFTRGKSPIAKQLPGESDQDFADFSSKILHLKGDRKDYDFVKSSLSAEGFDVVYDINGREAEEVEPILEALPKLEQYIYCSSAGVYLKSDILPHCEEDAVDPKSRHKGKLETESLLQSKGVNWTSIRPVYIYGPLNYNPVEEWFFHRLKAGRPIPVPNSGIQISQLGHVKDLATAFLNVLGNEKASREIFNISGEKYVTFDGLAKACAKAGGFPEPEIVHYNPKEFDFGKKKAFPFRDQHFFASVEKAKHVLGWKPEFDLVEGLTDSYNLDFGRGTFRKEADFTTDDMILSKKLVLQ
In words: EMSA. To be noted: 3 ug protein, DNA/protein 1:100, 50x unlabeled probe competition; EMSA: 10 mM Tris-HCl, 25 mM KCl, 1 mM DTT (1x from 10x stock; pH not stated), 1 ug poly(dI-dC) per 25 uL, 2.5% glycerol, 0.05% Triton X-100, 5 mM MgCl2, 10 mM EDTA; recombinant protein; residues 1-378; protein details: His (pET_His1a); label: biotin-14-dCTP at 3' end; probe letters rebuilt from the primers and the genome. A general note: A gel shift assay detects complexes by their altered migration in electrophoresis.

In data set [2] the target is T2, PRIN2 (UniProt Q9XIK0).
T2 sequence (looked up, limits assumed): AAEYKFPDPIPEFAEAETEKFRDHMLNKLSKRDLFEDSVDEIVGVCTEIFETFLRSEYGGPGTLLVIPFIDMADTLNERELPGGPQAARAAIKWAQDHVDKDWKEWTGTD
In words: EMSA. The settings on record: 3 ug protein, DNA/protein 1:100, 50x unlabeled probe competition; EMSA: 10 mM Tris-HCl, 25 mM KCl, 1 mM DTT (1x from 10x stock; pH not stated), 1 ug poly(dI-dC) per 25 uL, 2.5% glycerol, 0.05% Triton X-100, 5 mM MgCl2, 10 mM EDTA; recombinant protein; protein details: His (pET_His1a); label: biotin-14-dCTP at 3' end; probe letters rebuilt from the primers and the genome.

The exact form of at least one protein or probe is not confirmed. At least one verdict rests on a figure or table, not on a statement of the authors. Where a protein sequence is shown, tags need not be part of it.

Turning to “ACCCACTACGGATCGTATTCAATCGTATTCATATGATTTGGAAAAAATATTCCTAGAGCAATTCTATTTCTATGTATGTGGATTCGCTTCTAATTTATTTCATCGATTACAAAAAATTTTTTATGAATCTAAACTAAAAGGATCTTATCCATTTTACATTGGTTGACATGGCTATATAAGTCATGTTATACTGTTTC (double strand) [psbA promoter probe (197/198 bp)]”, the binding result in data set [1] and in data set [2] was “binds” in each case.
